Data as given in PubChem BioAssay AID504774 (Drosophila RNAi Screening Center, 2011)
The deposit covers about 23,000 reagents; below is an unselected part of those with a known target gene and a result. 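Values are quantile-normalised luminescence on an arbitrary scale; higher means more cells surviving MMS.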 A plus sign joins genes that one reagent is predicted to hit.

- Assay: 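Knock-downs that shift viability of MMS-exposed cells relative to untreated ones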 (primary screen)
- System: Drosophila Kc167 cells
- Knock-down reagent: long dsRNA against Drosophila genes, about 0.25 µg dsRNA per well
- Timing: about 6 days: 3 days knock-down, then 3 days with or without MMS
- Conditions: methyl methanesulphonate 0.004% (w/v) for 3 days after knock-down
- Read-out: 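Viability in wells given MMS, read as ATP luminescence, normalised by quantiles plate by plate and averaged across replicates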
- Scale: mean viability with MMS and viability with MMS: higher = more surviving cells after MMS

no.	gene	dsRNA	mean viability with MMS	viability with MMS, replicate 1	viability with MMS, replicate 2
1	tank (GeneID 33684)	DRSC00461	3.72e6	4.19e6	4.13e6
2	CG11929 (GeneID 33668)	DRSC00339	3.47e6	3.97e6	3.90e6
3	Ns2 (GeneID 36989)	DRSC06993	3.30e6	3.77e6	3.78e6
4	Spn77Bb + Spn77Bc	DRSC10689	3.80e6	4.23e6	4.25e6
5	Spn77Bb + Spn77Bc	DRSC11793	3.69e6	4.15e6	4.14e6
6	CG9899 (GeneID 37676)	DRSC04597	3.50e6	3.96e6	3.97e6
7	AdipoR (GeneID 42656)	DRSC15767	3.64e6	4.15e6	4.08e6
8	CG14837 (GeneID 38849)	DRSC10207	3.51e6	3.90e6	4.06e6
9	Rala (GeneID 31332)	DRSC18703	3.66e6	4.02e6	4.29e6
10	CG42335 (GeneID 42558)	DRSC14597	3.71e6	4.36e6	4.06e6
11	CG42335 (GeneID 42558)	DRSC15892	3.61e6	4.02e6	4.17e6
12	CG16800 (GeneID 34693)	DRSC02518	3.66e6	4.15e6	4.09e6
13	CG32388 (GeneID 192611)	DRSC08861	3.77e6	4.10e6	4.28e6
14	CG32813 (GeneID 31089)	DRSC17948	3.72e6	4.02e6	4.36e6
15	Appl (GeneID 31002)	DRSC17728	3.41e6	3.91e6	3.84e6
16	cyp33 (GeneID 36984)	DRSC07600	3.61e6	4.09e6	4.10e6
17	CG17298 (GeneID 42529)	DRSC15221	3.60e6	4.05e6	4.11e6
18	Npc2g (GeneID 43648)	DRSC14296	3.66e6	4.11e6	4.18e6
19	CG10680 (GeneID 35282)	DRSC02093	3.68e6	4.12e6	4.20e6
20	CG7606 (GeneID 8673956)	DRSC13246	3.68e6	4.20e6	4.09e6
21	CG7606 (GeneID 8673956)	DRSC16268	3.32e6	3.70e6	3.81e6
22	CG14370 (GeneID 41659)	DRSC14832	3.56e6	4.14e6	3.96e6
23	CG8750 (GeneID 50285)	DRSC11037	3.48e6	3.82e6	4.06e6
24	Flad1 (GeneID 32240)	DRSC19898	3.71e6	4.01e6	4.10e6
25	CG13699 (GeneID 40008)	DRSC10048	3.49e6	3.95e6	3.96e6
26	Ire1 (GeneID 42358)	DRSC15606	3.25e6	3.72e6	3.72e6
27	Gad1 (GeneID 38484)	DRSC08661	3.48e6	3.94e6	3.95e6
28	CG43317 (GeneID 41916)	DRSC15000	3.65e6	4.10e6	4.20e6
29	eag (GeneID 32428)	DRSC19067	3.45e6	3.96e6	3.89e6
30	eag (GeneID 32428)	DRSC20328	3.84e6	4.30e6	4.25e6
31	Arpc5 (GeneID 33444)	DRSC00730	3.44e6	3.81e6	3.94e6
32	CG9447 (GeneID 35597)	DRSC05008	3.51e6	4.06e6	3.91e6
33	Strip (GeneID 38412)	DRSC08194	3.48e6	3.98e6	3.91e6
34	Lip1 (GeneID 43973)	DRSC03364	3.83e6	4.00e6	4.71e6
35	Calx (GeneID 42481)	DRSC13457	3.49e6	3.95e6	3.97e6
36	Calx (GeneID 42481)	DRSC13459	3.72e6	4.15e6	4.18e6
37	Calx (GeneID 42481)	DRSC16599	3.53e6	4.11e6	3.90e6
38	Calx (GeneID 42481)	DRSC21850	3.51e6	4.04e6	3.93e6
39	Arr2 (GeneID 38993)	DRSC09670	3.50e6	3.91e6	4.03e6
40	CG31642 (GeneID 326149)	DRSC02919	3.57e6	4.24e6	3.85e6
41	CG44001 + CG33995	DRSC00853	3.47e6	3.84e6	4.07e6
42	CG44001 + CG33995	DRSC02898	3.45e6	3.95e6	3.79e6
43	Aldh-III (GeneID 45398)	DRSC06047	2.91e6	2.17e6	3.42e6
44	fra (GeneID 36377)	DRSC07621	3.48e6	4.02e6	3.96e6
45	CG30283 (GeneID 37454)	DRSC04071	3.64e6	4.22e6	4.03e6
46	CG34299 (GeneID 5740430)	DRSC13974	3.31e6	3.84e6	3.68e6

Ordered by “viability with MMS, replicate 1” (descending): 3 of the entries above.
gene	dsRNA	mean viability with MMS	viability with MMS, replicate 1	viability with MMS, replicate 2
cyp33 (GeneID 36984)	DRSC07600	3.61e6	4.09e6	4.10e6
CG17298 (GeneID 42529)	DRSC15221	3.60e6	4.05e6	4.11e6
Appl (GeneID 31002)	DRSC17728	3.41e6	3.91e6	3.84e6
